Measurements taken from the supplement of paper PMC7666118.
Some of the results follow.

Chains of the proteins cited; added tags and fusions are not shown. Lines headed by an entry give the natural chain unless they say otherwise; changes in a name come on top.
UniProt Q9NYU1: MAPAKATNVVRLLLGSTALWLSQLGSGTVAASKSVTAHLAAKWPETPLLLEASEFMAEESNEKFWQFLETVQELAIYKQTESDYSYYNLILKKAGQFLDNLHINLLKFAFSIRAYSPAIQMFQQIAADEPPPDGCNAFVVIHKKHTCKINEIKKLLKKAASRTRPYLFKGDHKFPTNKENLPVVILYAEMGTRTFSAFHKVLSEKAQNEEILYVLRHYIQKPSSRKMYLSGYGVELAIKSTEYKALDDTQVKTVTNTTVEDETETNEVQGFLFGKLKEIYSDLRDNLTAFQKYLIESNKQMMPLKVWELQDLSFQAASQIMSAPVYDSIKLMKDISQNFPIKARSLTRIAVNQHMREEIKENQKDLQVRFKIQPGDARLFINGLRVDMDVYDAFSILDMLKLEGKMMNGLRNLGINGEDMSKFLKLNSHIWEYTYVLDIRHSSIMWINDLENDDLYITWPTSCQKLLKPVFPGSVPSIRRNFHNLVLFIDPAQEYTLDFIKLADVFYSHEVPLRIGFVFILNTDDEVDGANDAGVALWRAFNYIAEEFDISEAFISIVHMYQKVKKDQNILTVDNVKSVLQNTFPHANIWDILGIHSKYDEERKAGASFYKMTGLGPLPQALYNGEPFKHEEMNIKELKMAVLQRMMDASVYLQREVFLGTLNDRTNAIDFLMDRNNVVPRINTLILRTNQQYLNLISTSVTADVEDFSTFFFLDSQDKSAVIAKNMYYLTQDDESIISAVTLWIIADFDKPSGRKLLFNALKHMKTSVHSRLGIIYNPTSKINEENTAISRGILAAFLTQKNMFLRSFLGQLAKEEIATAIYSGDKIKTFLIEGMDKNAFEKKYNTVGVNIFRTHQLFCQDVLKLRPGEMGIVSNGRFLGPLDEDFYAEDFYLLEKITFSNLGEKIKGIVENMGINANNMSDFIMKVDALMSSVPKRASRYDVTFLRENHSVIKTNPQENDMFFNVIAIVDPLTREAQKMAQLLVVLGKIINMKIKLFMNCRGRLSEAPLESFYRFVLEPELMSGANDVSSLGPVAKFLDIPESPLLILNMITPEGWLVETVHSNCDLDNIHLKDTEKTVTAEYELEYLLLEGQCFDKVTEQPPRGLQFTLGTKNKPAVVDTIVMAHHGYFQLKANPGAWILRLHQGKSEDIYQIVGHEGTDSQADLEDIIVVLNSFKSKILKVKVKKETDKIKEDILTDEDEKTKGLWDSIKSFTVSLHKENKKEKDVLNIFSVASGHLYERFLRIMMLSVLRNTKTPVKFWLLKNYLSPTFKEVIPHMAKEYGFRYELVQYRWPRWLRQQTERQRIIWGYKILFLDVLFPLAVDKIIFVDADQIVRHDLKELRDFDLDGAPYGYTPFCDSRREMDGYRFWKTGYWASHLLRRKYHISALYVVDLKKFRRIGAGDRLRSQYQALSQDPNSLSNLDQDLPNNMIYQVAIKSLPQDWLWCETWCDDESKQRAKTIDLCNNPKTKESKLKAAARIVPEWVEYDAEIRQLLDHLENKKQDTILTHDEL
UniProt Q9UBK9, whole entry: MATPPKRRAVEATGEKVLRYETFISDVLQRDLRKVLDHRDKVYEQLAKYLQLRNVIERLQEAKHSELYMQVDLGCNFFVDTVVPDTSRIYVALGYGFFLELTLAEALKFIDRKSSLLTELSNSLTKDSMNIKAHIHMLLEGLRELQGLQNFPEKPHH
UniProt Q96IX5: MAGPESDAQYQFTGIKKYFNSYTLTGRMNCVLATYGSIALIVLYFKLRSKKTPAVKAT
UniProt Q86UV5: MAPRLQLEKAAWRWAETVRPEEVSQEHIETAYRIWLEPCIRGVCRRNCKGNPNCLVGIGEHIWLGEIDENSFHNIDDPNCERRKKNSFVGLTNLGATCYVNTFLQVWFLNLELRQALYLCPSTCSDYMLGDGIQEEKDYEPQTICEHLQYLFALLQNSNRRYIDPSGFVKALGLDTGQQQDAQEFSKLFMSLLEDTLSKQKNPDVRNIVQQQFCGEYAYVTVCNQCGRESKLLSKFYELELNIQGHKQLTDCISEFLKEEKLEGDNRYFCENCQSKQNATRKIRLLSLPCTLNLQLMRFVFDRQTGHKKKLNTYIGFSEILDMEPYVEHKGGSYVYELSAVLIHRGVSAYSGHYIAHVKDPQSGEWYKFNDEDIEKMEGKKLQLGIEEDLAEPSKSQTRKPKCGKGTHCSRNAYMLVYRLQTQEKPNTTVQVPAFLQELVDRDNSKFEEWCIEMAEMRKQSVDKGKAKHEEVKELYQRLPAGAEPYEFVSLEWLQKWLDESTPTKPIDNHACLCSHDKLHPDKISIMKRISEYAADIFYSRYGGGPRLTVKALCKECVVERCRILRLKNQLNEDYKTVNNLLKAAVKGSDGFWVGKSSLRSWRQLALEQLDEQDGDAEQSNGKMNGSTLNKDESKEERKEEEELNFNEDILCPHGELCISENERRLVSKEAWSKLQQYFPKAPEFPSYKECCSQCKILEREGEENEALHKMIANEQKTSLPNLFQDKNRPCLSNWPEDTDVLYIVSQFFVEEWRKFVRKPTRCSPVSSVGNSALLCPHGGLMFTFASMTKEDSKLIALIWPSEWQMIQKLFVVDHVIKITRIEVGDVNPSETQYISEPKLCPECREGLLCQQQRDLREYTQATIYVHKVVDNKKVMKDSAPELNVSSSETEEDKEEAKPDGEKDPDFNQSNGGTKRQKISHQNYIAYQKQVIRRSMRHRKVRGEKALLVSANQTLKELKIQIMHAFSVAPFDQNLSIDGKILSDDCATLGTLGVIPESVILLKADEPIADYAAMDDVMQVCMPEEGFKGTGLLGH
UniProt Q8IX04: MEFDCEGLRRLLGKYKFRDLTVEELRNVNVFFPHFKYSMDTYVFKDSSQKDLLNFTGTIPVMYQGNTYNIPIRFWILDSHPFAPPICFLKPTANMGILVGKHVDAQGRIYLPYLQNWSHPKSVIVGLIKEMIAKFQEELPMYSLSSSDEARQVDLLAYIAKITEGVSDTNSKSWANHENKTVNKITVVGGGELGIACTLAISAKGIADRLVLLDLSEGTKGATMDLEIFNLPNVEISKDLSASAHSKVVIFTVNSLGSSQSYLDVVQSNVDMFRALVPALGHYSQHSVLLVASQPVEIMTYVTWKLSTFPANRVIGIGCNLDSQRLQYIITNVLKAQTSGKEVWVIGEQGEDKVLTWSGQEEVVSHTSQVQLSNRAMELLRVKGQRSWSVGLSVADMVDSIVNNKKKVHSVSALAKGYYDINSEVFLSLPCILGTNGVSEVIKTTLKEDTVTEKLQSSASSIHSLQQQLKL
UniProt P42768: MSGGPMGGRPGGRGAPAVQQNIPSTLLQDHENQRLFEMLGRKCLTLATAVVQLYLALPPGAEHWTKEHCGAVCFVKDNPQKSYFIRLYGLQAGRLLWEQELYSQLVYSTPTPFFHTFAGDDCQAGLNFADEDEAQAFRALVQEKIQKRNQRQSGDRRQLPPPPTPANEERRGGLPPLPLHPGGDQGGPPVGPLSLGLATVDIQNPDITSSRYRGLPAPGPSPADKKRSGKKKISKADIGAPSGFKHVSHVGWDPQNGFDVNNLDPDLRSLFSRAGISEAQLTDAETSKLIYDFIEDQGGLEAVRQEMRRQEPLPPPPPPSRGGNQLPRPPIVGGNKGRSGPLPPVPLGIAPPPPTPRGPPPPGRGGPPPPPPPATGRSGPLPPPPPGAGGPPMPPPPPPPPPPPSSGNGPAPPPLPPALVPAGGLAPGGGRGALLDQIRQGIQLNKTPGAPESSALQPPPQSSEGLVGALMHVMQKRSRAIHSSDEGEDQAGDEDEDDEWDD
UniProt Q9HAU5: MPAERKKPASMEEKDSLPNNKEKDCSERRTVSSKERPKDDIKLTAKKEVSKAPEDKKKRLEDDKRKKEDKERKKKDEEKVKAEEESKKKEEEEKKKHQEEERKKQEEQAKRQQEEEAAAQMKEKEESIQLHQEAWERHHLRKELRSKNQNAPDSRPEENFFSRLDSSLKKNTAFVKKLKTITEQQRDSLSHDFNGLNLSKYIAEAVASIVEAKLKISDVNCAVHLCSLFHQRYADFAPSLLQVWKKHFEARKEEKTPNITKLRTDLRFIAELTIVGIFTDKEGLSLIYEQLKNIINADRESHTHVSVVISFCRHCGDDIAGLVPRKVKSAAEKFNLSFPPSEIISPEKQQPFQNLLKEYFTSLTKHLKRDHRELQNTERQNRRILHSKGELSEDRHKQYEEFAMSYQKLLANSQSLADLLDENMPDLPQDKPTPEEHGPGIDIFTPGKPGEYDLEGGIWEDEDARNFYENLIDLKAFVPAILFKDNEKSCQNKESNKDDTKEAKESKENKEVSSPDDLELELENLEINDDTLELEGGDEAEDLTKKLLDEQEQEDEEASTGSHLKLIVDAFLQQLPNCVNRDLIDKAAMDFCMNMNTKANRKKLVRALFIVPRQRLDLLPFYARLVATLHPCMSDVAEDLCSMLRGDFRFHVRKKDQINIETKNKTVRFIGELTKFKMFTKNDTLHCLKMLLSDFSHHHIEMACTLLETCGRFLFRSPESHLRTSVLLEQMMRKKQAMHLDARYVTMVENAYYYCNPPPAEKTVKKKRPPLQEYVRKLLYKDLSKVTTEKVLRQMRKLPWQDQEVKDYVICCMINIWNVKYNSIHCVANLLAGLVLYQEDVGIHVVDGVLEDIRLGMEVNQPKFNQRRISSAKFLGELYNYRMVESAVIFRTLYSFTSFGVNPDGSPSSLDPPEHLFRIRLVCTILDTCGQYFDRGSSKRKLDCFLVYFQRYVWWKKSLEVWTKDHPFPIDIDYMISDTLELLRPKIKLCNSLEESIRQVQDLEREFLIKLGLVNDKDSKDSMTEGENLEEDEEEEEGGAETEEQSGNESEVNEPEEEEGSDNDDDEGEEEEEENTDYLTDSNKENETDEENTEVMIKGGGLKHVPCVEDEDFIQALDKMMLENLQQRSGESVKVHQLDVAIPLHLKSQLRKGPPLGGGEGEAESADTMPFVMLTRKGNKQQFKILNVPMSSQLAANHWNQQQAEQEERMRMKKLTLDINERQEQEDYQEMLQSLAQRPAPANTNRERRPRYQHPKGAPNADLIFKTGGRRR
UniProt Q92575: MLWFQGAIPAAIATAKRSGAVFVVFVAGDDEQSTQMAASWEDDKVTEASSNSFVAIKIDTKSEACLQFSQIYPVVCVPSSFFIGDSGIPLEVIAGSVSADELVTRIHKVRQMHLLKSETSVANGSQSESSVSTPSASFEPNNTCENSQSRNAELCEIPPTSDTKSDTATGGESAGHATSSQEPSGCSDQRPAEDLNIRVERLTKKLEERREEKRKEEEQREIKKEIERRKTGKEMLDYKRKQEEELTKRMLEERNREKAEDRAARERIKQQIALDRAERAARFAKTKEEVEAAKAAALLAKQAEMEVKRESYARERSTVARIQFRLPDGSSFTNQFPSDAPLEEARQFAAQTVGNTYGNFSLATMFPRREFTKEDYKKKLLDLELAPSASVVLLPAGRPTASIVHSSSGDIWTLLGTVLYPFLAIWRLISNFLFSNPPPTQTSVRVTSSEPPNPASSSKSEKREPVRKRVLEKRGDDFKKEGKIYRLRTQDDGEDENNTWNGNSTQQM
UniProt Q9NZ09: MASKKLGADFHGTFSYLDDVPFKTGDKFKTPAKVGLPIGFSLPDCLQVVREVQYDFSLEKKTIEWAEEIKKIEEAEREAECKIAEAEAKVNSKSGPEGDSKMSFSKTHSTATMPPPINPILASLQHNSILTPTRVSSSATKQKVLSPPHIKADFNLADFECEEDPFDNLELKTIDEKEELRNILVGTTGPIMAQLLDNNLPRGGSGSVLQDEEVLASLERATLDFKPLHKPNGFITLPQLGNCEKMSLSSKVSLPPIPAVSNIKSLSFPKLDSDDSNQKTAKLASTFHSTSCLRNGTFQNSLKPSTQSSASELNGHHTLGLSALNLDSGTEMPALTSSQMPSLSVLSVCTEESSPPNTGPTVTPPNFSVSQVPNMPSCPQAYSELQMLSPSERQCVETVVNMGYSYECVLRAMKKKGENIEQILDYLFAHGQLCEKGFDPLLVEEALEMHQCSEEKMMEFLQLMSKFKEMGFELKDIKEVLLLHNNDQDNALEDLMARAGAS
UniProt P51809, whole entry: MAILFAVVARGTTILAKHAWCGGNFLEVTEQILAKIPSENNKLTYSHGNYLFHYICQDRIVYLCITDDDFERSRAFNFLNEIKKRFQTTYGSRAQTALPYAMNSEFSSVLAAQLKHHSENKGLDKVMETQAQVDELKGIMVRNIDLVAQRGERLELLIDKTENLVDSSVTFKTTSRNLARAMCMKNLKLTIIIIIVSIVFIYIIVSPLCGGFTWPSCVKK
UniProt O95881: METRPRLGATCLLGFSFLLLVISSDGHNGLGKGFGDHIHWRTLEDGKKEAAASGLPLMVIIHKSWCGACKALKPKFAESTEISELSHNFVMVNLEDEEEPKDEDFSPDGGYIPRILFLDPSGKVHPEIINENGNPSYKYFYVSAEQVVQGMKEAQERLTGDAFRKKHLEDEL
UniProt Q8N5M4: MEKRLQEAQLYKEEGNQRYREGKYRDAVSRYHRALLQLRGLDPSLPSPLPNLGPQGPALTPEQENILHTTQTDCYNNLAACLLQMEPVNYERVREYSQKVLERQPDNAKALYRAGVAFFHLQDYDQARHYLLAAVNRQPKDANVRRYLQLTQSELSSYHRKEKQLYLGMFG

These targets were tested with COc1ccc(Cn2ccc3cc(C)c(C(=O)NO)cc32)cc1 (assay: dose-dependent thermal stabilisation call (2D-TPP, DLPTP, 10% FDR) (binary (1 = stabilised)); higher = stabilised by the compound). Settings: system: HL-60 intact cells; concentration range 0.04-10 µM.
Description: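 2D thermal proteome profiling in intact HL-60 cells treated with BRD-3811 (0, 0.04, 0.29, 2, 10 uM) for 90 min at 37 C, then heated 3 min at one of 12 temperatures (42-63.9 C). Soluble protein was quantified by TMT10 MS. The value is the DLPTP call of the paper: dose-dependent thermal stabilisation over all temperatures at 10% FDR (F-test of a dose-response against a flat model); one experiment, one call per tested protein.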

Target | dose-dependent thermal stabilisation call
UGCGL2 (UniProt Q9NYU1) | inactive: 0
UTP3 (UniProt Q9NQZ2) | inactive: 0
WBP11 (UniProt Q9Y2W2) | inactive: 0
VAPB (UniProt O95292) | inactive: 0
VDAC2 (UniProt P45880) | inactive: 0
UFM1 (UniProt P61960) | inactive: 0
UBE2D1 (UniProt P51668) | inactive: 0
UXT (UniProt Q9UBK9) | inactive: 0
U2AF2 (UniProt P26368) | inactive: 0
USMG5 (UniProt Q96IX5) | inactive: 0
USP48 (UniProt Q86UV5) | inactive: 0
TTC35 (UniProt Q15006) | inactive: 0
UTP20 (UniProt O75691) | inactive: 0
UTP14A (UniProt Q9BVJ6) | inactive: 0
UEVLD (UniProt Q8IX04) | inactive: 0
VPS4B (UniProt O75351) | inactive: 0
WAS (UniProt P42768) | inactive: 0
USP14 (UniProt P54578) | inactive: 0

Copied from the results shown for reference:
Target | dose-dependent thermal stabilisation call
TTC35 (UniProt Q15006) | inactive: 0
UTP20 (UniProt O75691) | inactive: 0

Later entries:

Target | dose-dependent thermal stabilisation call
USP36 (UniProt Q9P275) | inactive: 0
UPF2 (UniProt Q9HAU5) | inactive: 0
UROD (UniProt P06132) | inactive: 0
UBXN4 (UniProt Q92575) | inactive: 0
UCHL5 (UniProt Q9Y5K5) | inactive: 0
URB1 (UniProt O60287) | inactive: 0
TXLNA (UniProt P40222) | inactive: 0
UBE3C (UniProt Q15386) | inactive: 0
UBAP1 (UniProt Q9NZ09) | inactive: 0
VAMP7 (UniProt P51809) | inactive: 0
TXNDC1 (UniProt Q9H3N1) | inactive: 0
USP9X (UniProt Q93008) | inactive: 0
WASF1 (UniProt Q92558) | inactive: 0
UROS (UniProt P10746) | inactive: 0
UNC45A (UniProt Q9H3U1) | inactive: 0
USP28 (UniProt Q96RU2) | inactive: 0
TXNDC12 (UniProt O95881) | inactive: 0
TTC9C (UniProt Q8N5M4) | inactive: 0
